From paper PMC6459503
No constants are given. Whether binding was seen depends on the method and setting. In cells and extracts the contact can be indirect. A result given as binding can be weak or reduced; the word gives no strength.

Chains of the proteins cited; added tags and fusions are not shown. Lines headed by an entry give the natural chain unless they say otherwise; changes in a name come on top.
UniProt Q96EB6: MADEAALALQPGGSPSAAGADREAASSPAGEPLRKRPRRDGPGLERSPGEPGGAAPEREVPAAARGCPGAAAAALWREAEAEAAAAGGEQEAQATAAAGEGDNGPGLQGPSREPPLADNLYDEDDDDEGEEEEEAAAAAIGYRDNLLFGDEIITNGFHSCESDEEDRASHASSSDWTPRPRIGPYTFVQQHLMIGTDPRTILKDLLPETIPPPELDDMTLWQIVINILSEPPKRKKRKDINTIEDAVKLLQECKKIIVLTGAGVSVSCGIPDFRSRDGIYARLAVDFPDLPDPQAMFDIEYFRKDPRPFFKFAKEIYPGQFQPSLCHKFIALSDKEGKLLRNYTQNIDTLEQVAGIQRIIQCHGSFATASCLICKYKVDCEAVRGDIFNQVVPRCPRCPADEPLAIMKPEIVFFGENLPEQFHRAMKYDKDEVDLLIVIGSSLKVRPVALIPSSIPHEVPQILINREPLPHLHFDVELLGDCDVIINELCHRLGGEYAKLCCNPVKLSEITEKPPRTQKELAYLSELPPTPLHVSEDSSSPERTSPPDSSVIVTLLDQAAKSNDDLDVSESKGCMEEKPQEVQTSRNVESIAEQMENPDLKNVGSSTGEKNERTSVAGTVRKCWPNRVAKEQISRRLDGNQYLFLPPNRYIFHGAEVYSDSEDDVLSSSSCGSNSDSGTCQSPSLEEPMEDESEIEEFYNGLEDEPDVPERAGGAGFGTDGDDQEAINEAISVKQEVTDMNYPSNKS
UniProt Q13547: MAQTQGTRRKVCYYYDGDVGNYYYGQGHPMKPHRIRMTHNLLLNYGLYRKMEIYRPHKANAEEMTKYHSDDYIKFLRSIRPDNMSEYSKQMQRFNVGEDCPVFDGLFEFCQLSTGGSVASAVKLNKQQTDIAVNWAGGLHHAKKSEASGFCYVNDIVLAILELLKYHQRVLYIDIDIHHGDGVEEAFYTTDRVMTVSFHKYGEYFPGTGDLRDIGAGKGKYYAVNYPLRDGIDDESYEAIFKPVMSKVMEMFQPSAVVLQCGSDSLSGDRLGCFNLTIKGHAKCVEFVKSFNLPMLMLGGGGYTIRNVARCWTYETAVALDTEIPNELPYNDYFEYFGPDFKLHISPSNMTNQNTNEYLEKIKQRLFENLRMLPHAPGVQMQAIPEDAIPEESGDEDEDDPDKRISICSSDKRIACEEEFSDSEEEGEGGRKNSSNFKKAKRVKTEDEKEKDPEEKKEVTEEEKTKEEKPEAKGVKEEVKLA

Key:
Assay in all cases: co-IP; HEK293T co-transfected 1:1 for 48 h; lysis in 20 mM Tris-HCl pH 7.5, 150 mM NaCl, 1% Triton; IP with Flag antibody (IgG as control) overnight at 4°C, Protein A/G beads; blot for GFP, reprobed for Flag
[1] = target: Flag-tagged SIRT1 deletion construct Δ1 (UniProt Q96EB6)
[2] = target: Flag-tagged SIRT1 deletion construct Δ4 (UniProt Q96EB6)
[3] = target: Flag-tagged SIRT1 deletion construct Δ3 (UniProt Q96EB6)
[4] = target: Flag-tagged SIRT1 deletion construct Δ5 (UniProt Q96EB6)
[5] = target: Flag-tagged SIRT1 deletion construct Δ6 (UniProt Q96EB6)
[6] = target: Flag-tagged SIRT1 deletion construct Δ9 (UniProt Q96EB6)
[7] = target: Flag-tagged SIRT1 deletion construct Δ7 (UniProt Q96EB6)
[8] = target: Flag-tagged SIRT1 deletion construct Δ10 (UniProt Q96EB6)
[9] = target: Flag-tagged SIRT1 deletion construct Δ2 (UniProt Q96EB6)

Measured: binding

HDAC1-GFP (from UniProt Q13547 1-482)
binds: [1] | [2] | [3] | [4] | [5] | [6] | [7] | [8] | [9]

HDAC1-Δ56-GFP (from UniProt Q13547 57-482) (domain or fragment)
binds: [1] | [2] | [3] | [4] | [5] | [6] | [7] | [8] | [9]
